At least one compound was matched to its structure with a doubt left.
Test system: Human CD4+ T cells
Assay: IL-2 secretion of human peripheral blood CD4+ T cells (ELISA)
Assay type: cell-based
Conditions: stimulated human CD4+ T cells with IAP inhibitors plus the named drug

CO[C@H]1C[C@@H]2CC[C@@H](C)[C@@](O)(O2)C(=O)C(=O)N2CCCC[C@H]2C(=O)O[C@H]([C@H](C)C[C@@H]2CC[C@@H](O)[C@H](OC)C2)CC(=O)[C@H](C)/C=C(\C)[C@@H](O)[C@@H](OC)C(=O)[C@H](C)C[C@H](C)/C=C/C=C/C=C/1C [rapamycin]
effect on the enhanced IL-2 production associated with IAP inhibition: did not prevent
total IL-2 production: able to lower

From patent US10786491B2, “Immunomodulation by IAP inhibitors” (Novartis AG, priority 2008, dated 2020)
